From patent US5856350A, “3-phenyl-1,4-dialkyl-1,2,4-triazolium salts and their use as antidepressants” (Hoechst Marion Roussel, Inc., priority 1996, dated 1999)
For at least one compound, name, drawing or mass did not settle the structure.

Tested on: depression
Test: Pharmacological tests for selective antidepressant activity
Format: in vivo
Conditions: compared with neurodegeneration and other effects of related triazole derivatives

Cn1c[n+](C)nc1-c1cccc(F)c1 [Rn 3-F--, 3-(3-Fluorophenyl)-1,4-dimethyl-1,2,4-triazolium hydrosulfate]
selective activity against depression: selective activity against depression without concommitant activity against neurodegeneration or activity in tests for other pharmacological effects of related triazole derivatives
